Literature values in patent publication US20200079814A1, “Nucleotides comprising an N-[(S)-1-cyclobutoxycarbonyl]phosphoramidate moiety and analogs and application thereof” (priority 2017, published 2020).
Read-outs that look alike come from different tables or passages of the source. Some of these results come from one statement about several compounds together.

Columns and labels:
[1] = from M. J. Sofia et al. J. Med. Chem. 2010, cited from earlier work
[2] = from M. J. Sofia et al. J. Med. Chem. 2010, cited from earlier work; remark: listed apart in the source

Row | SMILES | T1/2 SIF [1] [h] | T1/2 human plasma [2] [h] | T1/2 SIF ([1]; listed as Sovaldi®) [h] | T1/2 human plasma ([2]; listed as Sovaldi®) [h]
1 | C[C@H](NP(=O)(OC[C@H]1O[C@@H](n2ccc(=O)[nH]c2=O)[C@](C)(F)[C@@H]1O)Oc1ccccc1)C(=O)OC1CCCCC1 (stereo partly drawn) [Prodrug 2.1, cyclohexyl (S)-2-{[(2R,3R,4R,5R)-5-(2,4-dioxo-3,4-dihydro-2H-pyrimidin-1-yl)-4-fluoro-3-hydroxy-4-methyl-tetrahydrofuran-2-ylmethoxy]-phenoxy-phosphorylamino}-propionate] | > 20 | > 24 |  | 
2 | CC(C)OC(=O)[C@H](C)NP(=O)(OC[C@H]1O[C@@H](n2ccc(=O)[nH]c2=O)[C@](C)(F)[C@@H]1O)Oc1ccccc1 (stereo partly drawn) [Sovaldi ®, isopropyl (S)-2-{[(2R,3R,4R,5R)-5-(2,4-dioxo-3,4-dihydro-2H-pyrimidin-1-yl)-4-fluoro-3-hydroxy-4-methyl-tetrahydrofuran-2-ylmethoxy]-phenoxy-phosphorylamino}-propionate] |  |  | > 20 | > 24
